# Cleaved PARP in drug-treated melanoma cells

Drugs:
BI-78D3, 1 µM: O=c1[nH]nc(Sc2ncc([N+](=O)[O-])s2)n1-c1ccc2c(c1)OCCO2
ruxolitinib, 5 µM: N#CC[C@H](C1CCCC1)n1cc(-c2ncnc3[nH]ccc23)cn1
tanespimycin, 0.01 µM: C=CCNC1=C2C[C@@H](C)C[C@H](OC)[C@H](O)[C@@H](C)/C=C(\C)[C@H](OC(N)=O)[C@@H](OC)/C=C\C=C(/C)C(=O)NC(=CC1=O)C2=O
GW441756, 2 µM: Cn1cc(/C=C2\C(=O)Nc3cccnc32)c2ccccc21
etoposide, 0.1 µM: COc1cc([C@@H]2c3cc4c(cc3[C@@H](O[C@@H]3O[C@@H]5CO[C@@H](C)O[C@H]5[C@H](O)[C@H]3O)[C@H]3COC(=O)[C@H]23)OCO4)cc(OC)c1O
PF-562271, 0.4 µM: CN(c1ncccc1CNc1nc(Nc2ccc3c(c2)CC(=O)N3)ncc1C(F)(F)F)S(C)(=O)=O
GW9662, 10 µM: O=C(Nc1ccccc1)c1cc([N+](=O)[O-])ccc1Cl
fludarabine, 1 µM: Nc1nc(F)nc2c1ncn2[C@@H]1O[C@H](CO)[C@@H](O)[C@@H]1O

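Human melanoma cell lines in 1,536-well plates were treated with a pair of drugs for 72 h, then fixed, stained and imaged. Values are the share of nuclei positive for cleaved PARP as a percentage of the same share in the DMSO control: 100 is the control level, higher means more apoptosis. Every drug was used at one fixed concentration, the higher of two screened. No replicate spread is given; individual values may be noisy. The marker varies much from line to line, for technical or biological reasons.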
Only some of the drugs and lines screened are listed, without regard to their results.

GW9662 and ruxolitinib gave A375: 49.3; A2058: 163.
PF-562271 and GW9662 gave A375: 98.3; A2058: 137.
etoposide and ruxolitinib gave A375: 164; A2058: 165.
BI-78D3 and PF-562271 gave A375: 155; A2058: 187.
PF-562271 and fludarabine gave A375: 852; A2058: 127.
GW9662 and BI-78D3 gave A375: 101; A2058: 236.
tanespimycin and GW9662 gave A375: 41.9; A2058: 158.
tanespimycin and GW441756 gave A375: 70.3; A2058: 96.9.
etoposide and fludarabine gave A375: 349; A2058: 163.
fludarabine and BI-78D3 gave A375: 250; A2058: 49.4.
ruxolitinib and BI-78D3 gave A375: 55.6; A2058: 144.
fludarabine and GW441756 gave A375: 427; A2058: 93.4.
PF-562271 and GW441756 gave A375: 193; A2058: 137.
PF-562271 and tanespimycin gave A375: 59.2; A2058: 206.
tanespimycin and ruxolitinib gave A375: 40.7; A2058: 466.
PF-562271 and ruxolitinib gave A375: 121; A2058: 319.
tanespimycin and etoposide gave A375: 119; A2058: 590.
ruxolitinib and GW441756 gave A375: 76.6; A2058: 104.
tanespimycin and fludarabine gave A375: 353; A2058: 149.
PF-562271 and etoposide gave A375: 82.3; A2058: 313.
BI-78D3 and GW441756 gave A375: 62.3; A2058: 85.4.
etoposide and GW9662 gave A375: 38.3; A2058: 287.

2 of the entries, repeated:

- GW9662 and ruxolitinib | A375: 49.3; A2058: 163
- PF-562271 and tanespimycin | A375: 59.2; A2058: 206

Source: doi:10.1371/journal.pone.0140310, primary screening data, rounded.